Experimental findings from article PMC11584840 are described below.

Protein sequences, listed by entry. Tags and fused reporters are not part of them.
UniProt P28482: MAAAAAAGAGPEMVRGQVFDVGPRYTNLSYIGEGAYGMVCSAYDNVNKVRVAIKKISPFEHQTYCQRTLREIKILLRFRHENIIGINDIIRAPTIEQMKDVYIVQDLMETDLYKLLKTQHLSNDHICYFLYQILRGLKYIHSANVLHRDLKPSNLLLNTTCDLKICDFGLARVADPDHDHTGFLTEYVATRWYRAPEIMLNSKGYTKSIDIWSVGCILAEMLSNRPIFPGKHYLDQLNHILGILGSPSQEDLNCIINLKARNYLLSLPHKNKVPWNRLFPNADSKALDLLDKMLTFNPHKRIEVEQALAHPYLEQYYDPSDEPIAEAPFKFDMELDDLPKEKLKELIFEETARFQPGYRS

These are yes or no findings as the source states them, for the method shown. In cells and extracts the contact can be indirect. Some binding calls cover weakened binding; strength is not graded here.

The experiment addresses FLAG-ERK2 (UniProt P28482). As to the kind of experiment: co-IP; HEK293T cells transfected with the indicated plasmids; IP with anti-Flag from whole cell lysates (overnight, 4 °C, protein A/G agarose), Western blot with anti-SENP2.

B1: SENP2 (enzyme, UniProt Q9HC62 1-589)
chain: MYRWLVRILGTIFRFCDRSVPPARALLKRRRSDSTLFSTVDTDEIPAKRPRLDCFIHQVKNSLYNAASLFGFPFQLTTKPMVTSACNGTRNVAPSGEVFSNSSSCELTGSGSWNNMLKLGNKSPNGISDYPKIRVTVTRDQPRRVLPSFGFTLNSEGCNRRPGGRRHSKGNPESSLMWKPQEQAVTEMISEESGKGLRRPHCTVEEGVQKEEREKYRKLLERLKESGHGNSVCPVTSNYHSSQRSQMDTLKTKGWGEEQNHGVKTTQFVPKQYRLVETRGPLCSLRSEKRCSKGKITDTETMVGIRFENESRRGYQLEPDLSEEVSARLRLGSGSNGLLRRKVSIIETKEKNCSGKERDRRTDDLLELTEDMEKEISNALGHGPQDEILSSAFKLRITRGDIQTLKNYHWLNDEVINFYMNLLVERNKKQGYPALHVFSTFFYPKLKSGGYQAVKRWTKGVNLFEQEIILVPIHRKVHWSLVVIDLRKKCLKYLDSMGQKGHRICEILLQYLQDESKTKRNSDLNLLEWTHHSMKPHEIPQQLNGSDCGMFTCKYADYISRDKPITFTQHQMPLFRKKMVWEILHQQLL
For B1, the binding entry was “binds”.
